Source: PubChem BioAssay AID1671195 (Yale University, 2021)
Here is a random part of about 22,000 reagents. Of all reagents, about 1,510 (6.9%) are marked active. 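Active includes knockdowns raising or lowering LDL uptake; positive z-scores mean more uptake, negative mean less.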 A number with no mark means an inactive call. Reagent sequences are not shown.

Screen: 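Genes whose knockdown alters LDL uptake in liver cancer cells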 (primary screen)
System: human Huh7 hepatoma cells
Reagents: siRNA pool against human genes, 18 nM
Timing: about 2 to 2.5 days of knockdown, then 8 h LDL uptake
Treatment: DiI-labelled LDL at 30 µg/ml for 8 h, in lipoprotein-deficient serum medium
Measured: 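Per-cell DiI-LDL intensity by automated imaging; well means scaled to the plate median and given as a robust z-score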
Reading the numbers: robust z-score: higher = more LDL uptake after knockdown
Active means: 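a gene counts as active if at least two replicate z-scores exceed ±2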

RNASE10 → robust z-score, replicate 1: -0.135; robust z-score, replicate 2: -0.371; robust z-score, replicate 3: 0.121
PIK3CA → robust z-score, replicate 1: -1.42; robust z-score, replicate 2: -1.63; robust z-score, replicate 3: -1.78
ZNF554 → robust z-score, replicate 1: -0.723; robust z-score, replicate 2: -1.02; robust z-score, replicate 3: -0.805
LNPK → robust z-score, replicate 1: -0.279; robust z-score, replicate 2: -0.414; robust z-score, replicate 3: 0.0223
ASB3 → robust z-score, replicate 1: 0.293; robust z-score, replicate 2: -0.672; robust z-score, replicate 3: 0.108
ADAM9 → robust z-score, replicate 1: 1.11; robust z-score, replicate 2: 0.319; robust z-score, replicate 3: 0.957
RASD2 → robust z-score, replicate 1: -0.0766; robust z-score, replicate 2: -0.661; robust z-score, replicate 3: 1.37
DYNLRB2 → robust z-score, replicate 1: 0.0777; robust z-score, replicate 2: 0.457; robust z-score, replicate 3: 0.512
SACK1H → robust z-score, replicate 1: -0.739; robust z-score, replicate 2: -1.2; robust z-score, replicate 3: -1.06
LOC439966 (retired record) → robust z-score, replicate 1: 0.215; robust z-score, replicate 2: 0.379; robust z-score, replicate 3: 0.000731
LOC441006 (retired record) → robust z-score, replicate 1: -0.161; robust z-score, replicate 2: -0.53; robust z-score, replicate 3: -0.78
MPC1L → robust z-score, replicate 1: 0.129; robust z-score, replicate 2: 0.274; robust z-score, replicate 3: -0.262
H2AZ2P1 → robust z-score, replicate 1: 1.2; robust z-score, replicate 2: 0.978; robust z-score, replicate 3: 0.955
TPPP3 → robust z-score, replicate 1: 0.312; robust z-score, replicate 2: -0.286; robust z-score, replicate 3: -1.76

Records above whose gene name begins with L or l (3):
LNPK → robust z-score, replicate 1: -0.279; robust z-score, replicate 2: -0.414; robust z-score, replicate 3: 0.0223
LOC439966 (retired record) → robust z-score, replicate 1: 0.215; robust z-score, replicate 2: 0.379; robust z-score, replicate 3: 0.000731
LOC441006 (retired record) → robust z-score, replicate 1: -0.161; robust z-score, replicate 2: -0.53; robust z-score, replicate 3: -0.78

The results go on.
TOMM20L → robust z-score, replicate 1: 1.22; robust z-score, replicate 2: 0.691; robust z-score, replicate 3: 1.5
TRPT1 → robust z-score, replicate 1: 0.0403; robust z-score, replicate 2: 0.534; robust z-score, replicate 3: 0.585
LOC283157 (retired record) → robust z-score, replicate 1: -0.576; robust z-score, replicate 2: -0.417; robust z-score, replicate 3: -0.813
IGFL2 → robust z-score, replicate 1: 1.83; robust z-score, replicate 2: 1.56; robust z-score, replicate 3: 1.97
LINC00487 → robust z-score, replicate 1: 0.298; robust z-score, replicate 2: 0.231; robust z-score, replicate 3: 0.398
GARS1-DT → robust z-score, replicate 1: 0.522; robust z-score, replicate 2: 0.39; robust z-score, replicate 3: 0.179
ST7L → robust z-score, replicate 1: 1.22; robust z-score, replicate 2: 0.38; robust z-score, replicate 3: 1.83
SLC8B1 → robust z-score, replicate 1: -0.416; robust z-score, replicate 2: -1.03; robust z-score, replicate 3: -0.401
NAT2 → robust z-score, replicate 1: -0.548; robust z-score, replicate 2: -0.718; robust z-score, replicate 3: -0.108
GTPBP4 → robust z-score, replicate 1: -0.92; robust z-score, replicate 2: 0.893; robust z-score, replicate 3: -0.5
